Some of the results follow.
Columns and labels:
Assay in all cases: glycan array binding signal (z-score within array); higher = stronger binding
Details in all cases: glycan notation: IUPAC condensed, linker removed
Fuc(a1-2)Gal = target: Fuc(a1-2)Gal
Procedure, shortened: (§1)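 Columns mapping to the same glycan were averaged after glycan names were converted to IUPAC-condensed notation. The data come from 3228 arrays in the Consortium for Functional Glycomics database, limited to those with an available protein sequence. Binding is reported as a within-array Z-score averaged across arrays of one protein sequence and across linkers.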

Fuc(a1-2)Gal(b1-3)GalNAc = target: Fuc(a1-2)Gal(b1-3)GalNAc
Procedure, shortened: as §1

[1] = target: Fuc(a1-2)Gal(b1-3)GalNAc(a1-3)[Fuc(a1-2)]Gal(b1-4)Glc
Procedure, shortened: as §1

[2] = target: Fuc(a1-2)Gal(b1-3)GalNAc(a1-3)[Fuc(a1-2)]Gal(b1-4)GlcNAc
Procedure, shortened: as §1

[3] = target: Fuc(a1-2)Gal(b1-3)GalNAc(b1-3)Gal
Procedure, shortened: as §1

[4] = target: Fuc(a1-2)Gal(b1-3)GalNAc(b1-3)Gal(a1-4)Gal(b1-4)Glc
Procedure, shortened: as §1

[5] = target: Fuc(a1-2)Gal(b1-3)GalNAc(b1-4)[Neu5Ac(a2-3)]Gal(b1-4)Glc
Procedure, shortened: as §1

Fuc(a1-2)Gal(b1-3)GlcNAc = target: Fuc(a1-2)Gal(b1-3)GlcNAc
Procedure, shortened: as §1

[6] = target: Fuc(a1-2)Gal(b1-3)GlcNAc(b1-2)Man(a1-3)[Fuc(a1-2)Gal(b1-3)GlcNAc(b1-2)Man(a1-6)]Man(b1-4)GlcNAc(b1-4)GlcNAc
Procedure, shortened: as §1

[7] = target: Fuc(a1-2)Gal(b1-3)GlcNAc(b1-2)Man(a1-3)[Fuc(a1-2)Gal(b1-3)GlcNAc(b1-2)Man(a1-6)]Man(b1-4)GlcNAc(b1-4)[Fuc(a1-6)]GlcNAc
Procedure, shortened: as §1

[8] = target: Fuc(a1-2)Gal(b1-3)GlcNAc(b1-3)Gal(b1-4)Glc
Procedure, shortened: as §1

[9] = target: Fuc(a1-2)Gal(b1-3)GlcNAc(b1-3)GalNAc
Procedure, shortened: as §1

[10] = target: Fuc(a1-2)Gal(b1-3)GlcNAc(b1-3)[Fuc(a1-2)Gal(b1-3)GlcNAc(b1-6)]GalNAc
Procedure, shortened: as §1

[11] = target: Fuc(a1-2)Gal(b1-3)GlcNAc(b1-3)[Gal(b1-4)GlcNAc(b1-6)]Gal(b1-4)Glc
Procedure, shortened: as §1

[12] = target: Fuc(a1-2)Gal(b1-3)GlcNAc(b1-3)[Neu5Ac(a2-6)Gal(b1-4)GlcNAc(b1-6)]Gal(b1-4)Glc
Procedure, shortened: as §1

[13] = target: Fuc(a1-2)Gal(b1-3)GlcNAc6S
Procedure, shortened: as §1

[14] = target: Fuc(a1-2)Gal(b1-3)[Fuc(a1-4)]GlcNAc
Procedure, shortened: as §1

[15] = target: Fuc(a1-2)Gal(b1-3)[Fuc(a1-4)]GlcNAc(b1-2)Man(a1-3)[Fuc(a1-2)Gal(b1-3)[Fuc(a1-4)]GlcNAc(b1-2)Man(a1-3)]Man(b1-4)GlcNAc(b1-4)GlcNAc
Procedure, shortened: as §1

[16] = target: Fuc(a1-2)Gal(b1-3)[Fuc(a1-4)]GlcNAc(b1-2)Man(a1-3)[Fuc(a1-2)Gal(b1-3)[Fuc(a1-4)]GlcNAc(b1-2)Man(a1-6)]Man(b1-4)GlcNAc(b1-4)[Fuc(a1-6)]GlcNAc(b1-4)[Fuc(a1-6)]GlcNAc
Procedure, shortened: as §1

[17] = target: Fuc(a1-2)Gal(b1-3)[Fuc(a1-4)]GlcNAc(b1-3)[Fuc(a1-3)[Gal(b1-4)]GlcNAc(b1-6)]Gal(b1-4)Glc
Procedure, shortened: as §1

[18] = target: Fuc(a1-2)Gal(b1-3)[Fuc(a1-4)]GlcNAc(b1-3)[Gal(b1-4)GlcNAc(b1-6)]Gal(b1-4)Glc
Procedure, shortened: as §1

Fuc(a1-2)Gal(b1-4)Glc = target: Fuc(a1-2)Gal(b1-4)Glc
Procedure, shortened: as §1

Fuc(a1-2)Gal(b1-4)Glc6S = target: Fuc(a1-2)Gal(b1-4)Glc6S
Procedure, shortened: as §1

Fuc(a1-2)Gal(b1-4)GlcNAc = target: Fuc(a1-2)Gal(b1-4)GlcNAc
Procedure, shortened: as §1

[19] = target: Fuc(a1-2)Gal(b1-4)GlcNAc(b1-2)Man
Procedure, shortened: as §1

[20] = target: Fuc(a1-2)Gal(b1-4)GlcNAc(b1-2)Man(a1-3)[Fuc(a1-2)Gal(b1-4)GlcNAc(b1-2)Man(a1-6)]Man(b1-4)GlcNAc(b1-4)GlcNAc
Procedure, shortened: as §1

[21] = target: Fuc(a1-2)Gal(b1-4)GlcNAc(b1-2)Man(a1-3)[Fuc(a1-2)Gal(b1-4)GlcNAc(b1-2)Man(a1-6)]Man(b1-4)GlcNAc(b1-4)[Fuc(a1-6)]GlcNAc
Procedure, shortened: as §1

[22] = target: Fuc(a1-2)Gal(b1-4)GlcNAc(b1-2)[Fuc(a1-2)Gal(b1-4)GlcNAc(b1-4)]Man(a1-3)[Fuc(a1-2)Gal(b1-4)GlcNAc(b1-2)Man(a1-6)]Man(b1-4)GlcNAc(b1-4)GlcNAc
Procedure, shortened: as §1

[23] = target: Fuc(a1-2)Gal(b1-4)GlcNAc(b1-3)Gal(b1-4)GlcNAc
Procedure, shortened: as §1

[24] = target: Fuc(a1-2)Gal(b1-4)GlcNAc(b1-3)Gal(b1-4)GlcNAc(b1-2)Man(a1-3)[Fuc(a1-2)Gal(b1-4)GlcNAc(b1-3)Gal(b1-4)GlcNAc(b1-2)Man(a1-6)]Man(b1-4)GlcNAc(b1-4)GlcNAc
Procedure, shortened: as §1

B1: GS13814A-bth-462-26-462 (Bacteroides thetaiotaomicron) (protein)
chain: DDRDNLMVNDQIGLLHSTYTETEIFRGMDTPYQLFVIKSGKGKQETEVSISVDETVLQSYNTDNGTSIQLLPSDCYTILQPALRLNDSDYRKAFDIKWNADRLSDLLSTGKEYGLPIQMSVVQNFISADDERLKTIIVPTIKEPYLQMDVPGMSPVTDFMPTFGDLNERELFVKIRTNYSNDEDISFQIEVDPQLVIDYNTAHGTAYKMLPESSFTVDNKGVILTGMKETFIKIKYHKKGLIPEEGTYLFGDYVLPLRITSVSKYGISPDAASKLYTVKFQPDPIDKKGWSVIDFNNCCTQDGGWYLNMGWGVESLIDNNPGTQWLCRWDVKEPLPYYFVFDMGKEYTLFRFGFANPVAPAAHVWAGTSKAGYVEASIDNENWVKLKDWTSPKIGEPNVNMDVPATQARYIRFVITDTYPTYDGLRVSLGEVYAWGM
- glycan array binding signal (z-score) (Fuc(a1-2)Gal): 0.789
- glycan array binding signal (z-score) (Fuc(a1-2)Gal(b1-3)GalNAc): 0.571
- glycan array binding signal (z-score) [1]: -0.009
- glycan array binding signal (z-score) [2]: -1.06
- glycan array binding signal (z-score) [3]: 0.037
- glycan array binding signal (z-score) [4]: -0.308
- glycan array binding signal (z-score) [5]: -0.003
- glycan array binding signal (z-score) (Fuc(a1-2)Gal(b1-3)GlcNAc): -0.005
- glycan array binding signal (z-score) [6]: 1.01
- glycan array binding signal (z-score) [7]: -0.414
- glycan array binding signal (z-score) [8]: 0.315
- glycan array binding signal (z-score) [9]: -0.472
- glycan array binding signal (z-score) [10]: 0.46
- glycan array binding signal (z-score) [11]: -0.86
- glycan array binding signal (z-score) [12]: -0.718
- glycan array binding signal (z-score) [13]: 0.856
- glycan array binding signal (z-score) [14]: -1.06
- glycan array binding signal (z-score) [15]: 1.49
- glycan array binding signal (z-score) [16]: 0.703
- glycan array binding signal (z-score) [17]: -0.751
- glycan array binding signal (z-score) [18]: -0.3
- glycan array binding signal (z-score) (Fuc(a1-2)Gal(b1-4)Glc): 0.064
- glycan array binding signal (z-score) (Fuc(a1-2)Gal(b1-4)Glc6S): 0.689
- glycan array binding signal (z-score) (Fuc(a1-2)Gal(b1-4)GlcNAc): -0.135
- glycan array binding signal (z-score) [19]: 0.143
- glycan array binding signal (z-score) [20]: 0.925
- glycan array binding signal (z-score) [21]: 0.222
- glycan array binding signal (z-score) [22]: -0.627
- glycan array binding signal (z-score) [23]: -0.031
- glycan array binding signal (z-score) [24]: -0.179

Reference: the supplement of paper PMC8728848
